Step yield data for two substances are collected here from patent US4267102A (Nippon Kayaku Kabushiki Kaisha, priority 1979, dated 1981).

The nature of this series: general procedure: peptide synthesis; CCBT, N-methylmorpholine. The settings on record: late stage modification step, hydrochloride.

With “3-(3-n-butylaminopropylamino)propylamino-N-methylbleomycin”, the step yield (run 1) is given as 51% and the step yield (run 2) came to 85%.
As to “3-[(S)-1'-phenylethylamino]propylamino-N-methylbleomycin”, the step yield came to 65% (run 1), 8.2% (run 2), 92% (run 3) and 96% (run 4).
